# Measured values from PubChem BioAssay AID651640 (Broad Institute, 2012).
# In all, about 350,000 compounds went through this assay and about 6,000 (1.7%) were called active. The shares of active, inactive and inconclusive entries below differ from those in the screen. No stated cut-off is given here; in the data, active means CPE inhibition above about 20% (passing the limit was not always enough); inconclusive means no clear call, values can overlap the other calls; tested in BHK-21 cells. A structure can be active in one record and inactive in another.
# Test: protection of cells from dengue 2 killing – plate reader, single concentration, primary screen (AID 651640);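 further: 0% = median of neutral control wells and 100% = median of positive control wells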
# Details: DENV2-infected cells, cytopathic effect rescue, at 9.99 µM, stronger effect = higher value
row,Structure (SMILES),CPE inhibition
1,Cc1noc(C)c1S(=O)(=O)Nc1ccc2c(c1)CC(=O)N([C@H](C)CO)C[C@@H](C)[C@H](CN(C)Cc1ccc(-c3ccccc3)cc1)O2,inactive: 4.82%
2,Cc1ccc(-n2c(SCC(=O)N3CCOCC3)nc(O)cc2=O)cc1,active: 68.9%
3,O=C(c1ccc(F)cc1)N1CC[C@@H]2[C@H](CO)Nc3ccc(-c4ccccc4F)cc3[C@@H]21,inconclusive: 26.9%
4,O=C(NC1CCCCC1)[C@@H]1CC=C[C@@H]2CCN(C3CCCCC3)C(=O)[C@@H]21,inconclusive: 37.6%
5,COCCNc1nc(NCCCN(C)C)c2sccc2n1,inconclusive: 58.4%
6,CC1(C)C2CC=C(/C=N/NC(=S)NCCc3ccccc3)C1C2 (stereo not given),inactive: 7.75%
7,OC[C@H]1O[C@H](OCCc2ccc(O)cc2)[C@H](O)[C@@H](O)[C@@H]1O,inactive: 2.78%
8,O=C(Nc1cccc(Cl)c1)N[C@H]1CC[C@@H](CCNC(=O)C2CCOCC2)O[C@@H]1CO,inconclusive: 27.5%
9,Cc1ccc(CNC(=O)C2CC(c3cc(C(F)(F)F)cc(C(F)(F)F)c3)=NO2)o1 (stereo not given),inconclusive: 74.7%
10,O=C(O)C1CCN(S(=O)(=O)c2ccc3[nH]ccc3c2)CC1,inconclusive: 21.7%
11,CS(=O)(=O)N1CCc2cc(C(=O)Nc3ccccc3Br)ccc21,inconclusive: 59.5%
12,CCCNC(=O)C[C@H]1CC[C@@H]2[C@H](COC[C@@H](O)CN2C(=O)c2ccccn2)O1,active: 88.9%
13,N#Cc1cccnc1N1CCN(C(c2ccnc3ccccc23)c2nnnn2-c2ccc3c(c2)OCCO3)CC1 (stereo not given),inconclusive: 51.5%
14,C[C@H]1CCCCO[C@H](CN(C)C(=O)Nc2ccc3c(c2)OCO3)[C@@H](C)CN([C@@H](C)CO)C(=O)c2cc(NC(=O)Cc3ccccc3)ccc2O1,active: 27.1%
15,CC(C)c1ccc(CCNC(=O)CCNS(=O)(=O)c2ccc(Br)cc2)cc1,inactive: -0.405%
16,C[C@@H]1CN([C@H](C)CO)C(=O)c2cc(-c3ccc(C#N)cc3)cnc2O[C@@H]1CN(C)Cc1cncnc1,inconclusive: 21.2%
17,COc1ccccc1C(C(=O)NCc1ccc(F)cc1)N(C(=O)c1csnn1)C1CC1 (stereo not given),inconclusive: 29.2%
18,CCCNC(=O)c1cc2c(c(-c3cccc(-c4cccc(F)c4)c3)n1)[C@@H](CCO)N([S@](=O)C(C)(C)C)C2,inconclusive: 25%
19,C[C@@H]1CN([C@H](C)CO)C(=O)c2cc(C3=CCCC3)cnc2O[C@@H]1CN(C)C(=O)NC1CCCC1,inactive: -6.94%
20,COc1ccc(/C=N/Nc2nc(-c3cccnc3)nc3ccccc23)cc1OC,inconclusive: 22.5%

# As entered above:
# Cc1noc(C)c1S(=O)(=O)Nc1ccc2c(c1)CC(=O)N([C@H](C)CO)C[C@@H](C)[C@H](CN(C)Cc1ccc(-c3ccccc3)cc1)O2 – CPE inhibition: inactive: 4.82%
# N#Cc1cccnc1N1CCN(C(c2ccnc3ccccc23)c2nnnn2-c2ccc3c(c2)OCCO3)CC1 (stereo not given) – CPE inhibition: inconclusive: 51.5%
